Measurements as given in paper PMC3233689 (The Journal of neuroscience : the official journal of the …, 2011).

Tests used:
RDL receptor F206-FPhe = details: GABA
RDL receptor F206-F3Phe = details: GABA

Structure (SMILES): NCCCC(=O)O [GABA]
- EC50 (RDL receptor F206-FPhe): 65 µM
- Log EC50 (M) (RDL receptor F206-FPhe; printed as negative log): -4.190 ± 0.05 M
- EC50 (RDL receptor F206-F3Phe): 1020 µM
- Log EC50 (M) (RDL receptor F206-F3Phe; printed as negative log): -2.990 ± 0.04 M
- increase in EC50 (RDL receptor Y254-FPhe): ~1.5 fold
- EC50 (RDL receptor Y254-FPhe; GABA, Y254-FPhe): 110 µM
- Log EC50 (M) (RDL receptor Y254-FPhe; GABA, Y254-FPhe, printed as negative log): -3.995 ± 0.07 M
- increase in EC50 (RDL receptor Y254F2-Phe): ~10 fold
- EC50 (RDL receptor Y254F2-Phe; GABA, Y254F2-Phe): 733 µM
- increase in EC50 (RDL receptor Y254F3-Phe): ~33 fold
- EC50 (RDL receptor Y254F3-Phe; GABA, Y254F3-Phe): 2520 µM
- Log EC50 (M) (RDL receptor F146F3Phe; GABA, F146F3Phe, printed as negative log): -4.084 ± 0.15 M
- increase in GABA EC50 (RDL receptor F146F3Phe; Phe146 substituted with F3-Phe, compared to WT): < 4 fold
